Measured values from patent US20250339391A1, “METHODS FOR EFFECTIVE MANAGEMENT OF PAIN” (South Rampart Pharma, Inc., priority 2024, published 2025).
At least one read-out could not be matched to a standard name with certainty.

Experiment: Toxicokinetic (TK) beagle dog data after IV and PO dosing
Format: in vivo

CCN(CC)C(=O)c1ccccc1S(=O)(=O)NCC(=O)Nc1ccc(O)cc1 [SRP-001, N,N-diethyl-2-[[2-(4-hydroxyanilino)-2-oxo-ethyl]sulfamoyl]benzamide]
time to Cmax: 15 to 30 min
